In PubChem BioAssay AID200 (DTP/NCI, 2004):
The list shows only some results of the screen, not a fair sample: it gathers tests that were run many times, whatever their T/C, doses with no T/C, and many T/C values between a quarter and a half above the control. Further doses and runs are listed elsewhere. T/C: endpoint of the treated group in % of that of the vehicle group. Some entries give survivors of the animals treated and no T/C: the source files T/C as zero there, which appears to mark a toxic dose or a test without result, not a measured value. Some survivor counts are full or nearly so, which does not show that the dose was tolerated: survival well below the control is almost never listed, so the zero probably covers shortened survival too. Survivors were counted at the toxicity check, usually on the fifth day, unless a day is given; later deaths do not show. Schedules are NCI's codes, read here as Q, the interval in days (D) or hours (H), X, the number of doses. Brackets with × say how often a value occurs here. Some entries were tested several times; the results are listed from low to high. Where survival is the endpoint, this PubChem deposit counts one and a half times the control or more as active, and values a quarter to a half above the control carry no call in these data; other NCI protocols may use other cut-offs. Some T/C values carry the count of animals alive at the toxicity check (mostly the fifth day); without a count, all were alive then. Where a SMILES comes first, the peptide text is derived from it. The star is where a group is joined. Cbz = O=C(OCc1ccccc1)*; Bn = c1ccc(C*)cc1

System: B6C3F1 mice, B16 melanoma ip, median survival T/C
Test: NCI In Vivo Anticancer Drug Screen. Data for tumor model B16 Melanoma (intraperitoneal) in B6C3F1 mice
Conditions: T/C endpoint: median survival time, schedule: Q01DX009 (ip), higher T/C = longer survival
Outline: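 Readout: survival or tumor size in treated mice relative to vehicle controls (T/C). Model uses transplantable tumors grown in mice.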

[1] = dose: 400.0 mg/kg/injection, vehicle: saline with Tween-80
[2] = dose: 400.0 mg/kg/injection, vehicle: Klucel (hydroxypropylcellulose) (HPC)
[3] = dose: 200.0 mg/kg/injection, vehicle: saline with Tween-80
[4] = dose: 25.0 mg/kg/injection, vehicle: Klucel (hydroxypropylcellulose) (HPC)
[5] = dose: 50.0 mg/kg/injection, vehicle: Klucel (hydroxypropylcellulose) (HPC)
[6] = dose: 100.0 mg/kg/injection, vehicle: Klucel (hydroxypropylcellulose) (HPC)
[7] = dose: 2.0 mg/kg/injection, vehicle: saline
[8] = dose: 4.0 mg/kg/injection, vehicle: saline
[9] = dose: 8.0 mg/kg/injection, vehicle: saline
[10] = dose: 100.0 mg/kg/injection, vehicle: saline with Tween-80

Cc1c2cc[n+](C)cc2c(C)c2c1[nH]c1ccc(O)cc12
T/C (dose: 0.06 mg/kg/injection, vehicle: water): 130 % of control | T/C (dose: 0.25 mg/kg/injection, vehicle: water, evaluated on day 45): 137 % of control | T/C (dose: 0.25 mg/kg/injection, vehicle: water, evaluated on day 60): 126 % of control | T/C (dose: 0.5 mg/kg/injection, vehicle: water, evaluated on day 45): 147 % of control | T/C (dose: 0.5 mg/kg/injection, vehicle: water, evaluated on day 60): 132 % of control [9 of 10 alive] | T/C (dose: 1.0 mg/kg/injection, vehicle: water): 145 % of control | survivor count (dose: 2.0 mg/kg/injection, vehicle: water): 10 of 10 | survivor count (dose: 4.0 mg/kg/injection, vehicle: water): 10 of 10 | survivor count (dose: 5.0 mg/kg/injection, vehicle: saline): 7 of 8

CCCOC(=O)c1nc(N(CC2CCCCC2)C(=O)NC)sc1/N=C/c1ccccc1
survivor count (dose: 72.0 mg/kg/injection, vehicle: saline with Tween-80): 10 of 10

O=C(Nc1nncs1)c1cccs1
T/C [1]: 127 % of control | survivor count [1]: 10 of 10

CC(C)C(NC(=O)C(CSCc1ccccc1)NC(=O)OCc1ccccc1)C(=O)O (stereo not drawn) (Cbz-Cys(Bn)-Val-OH; configuration not given here)
survivor count [2]: 0 of 10

C[n+]1c(/C=N/NC(N)=S)ccc2ccccc21
survivor count [3]: 10 of 10

Cn1c2ccccc2c2ccc3c(c21)C(=O)C=CC3=O
survivor count [4]: 10 of 10 | survivor count [5]: 5 of 10 | survivor count [6]: 0 of 10

COc1cc2cc(c1Cl)N1CC(=O)C(C)(O)C(=O)N(C)C(C)C(=O)OC(CC1=O)C1(C)OC1C(C)C1CC(O)(NC(=O)O1)C(OC)/C=C\C=C(\C)C2OC (stereo not drawn)
survivor count (dose: 32.0 micrograms/kg/injection, vehicle: distilled water + alcohol): 10 of 10 | survivor count (dose: 64.0 micrograms/kg/injection, vehicle: distilled water + alcohol): 9 of 10 | survivor count (dose: 128.0 micrograms/kg/injection, vehicle: distilled water + alcohol): 3 of 10

C=C(C)C(=O)OC1C/C(CO)=C\C(O)C/C(C)=C/C2OC(=O)C(=C)C21 (stereo not drawn)
T/C (dose: 20.0 mg/kg/injection, vehicle: saline + alcohol): 126 % of control

c1ccc([C@H]2CN3CCSC3=N2)cc1
T/C (dose: 0.5 mg/kg/injection, vehicle: saline): 96, 99, 101, 104 (2×), 129 % of control | T/C (dose: 1.0 mg/kg/injection, vehicle: saline): 93, 101, 102, 105, 113 % of control (2×) | T/C [7]: 95 [9 of 10 alive], 96 [9 of 10 alive], 97, 99 (2×), 107 % of control [9 of 10 alive] | T/C [8]: 93, 98 (3×), 107, 125 % of control | T/C [9]: 98, 101, 104 (3×), 119 % of control [9 of 10 alive]

CC(/C=C/c1ccccc1)=Nc1ccccc1
survivor count [1]: 9 of 10

O=NN(CCCl)C(=O)Oc1ccc(OC(=O)N(CCCl)N=O)cc1
survivor count [4]: 9 of 10 | survivor count [5]: 9 of 10

O=C(CO)c1ccc([N+](=O)[O-])cc1
T/C (dose: 12.5 mg/kg/injection, vehicle: saline with Tween-80): 132 % of control

CC1=C[C@@]23[C@H](C=C(C(=O)O)[C@@H]2COC(=O)[C@]32CO2)[C@@H]1C
survivor count [7]: 4 of 10 | survivor count [8]: 0 of 10 | survivor count [9]: 0 of 10 | survivor count (dose: 16.0 mg/kg/injection, vehicle: saline): 0 of 10

O=C(O)CNC(=O)c1ccccc1
survivor count (dose: 160.0 mg/kg/injection, vehicle: saline with Tween-80): 6 of 6 | survivor count (dose: 320.0 mg/kg/injection, vehicle: saline with Tween-80): 5 of 6 | survivor count (dose: 640.0 mg/kg/injection, vehicle: saline with Tween-80): 5 of 6

Nc1nc(N)c2cc(CNc3ccc(C(=O)NC(CC(=O)O)CC(=O)O)cc3)ccc2n1
survivor count (dose: 0.19 mg/kg/injection, vehicle: Klucel (hydroxypropylcellulose) (HPC)): 10 of 10 | survivor count (dose: 0.78 mg/kg/injection, vehicle: Klucel (hydroxypropylcellulose) (HPC)): 10 of 10 | survivor count (dose: 1.56 mg/kg/injection, vehicle: Klucel (hydroxypropylcellulose) (HPC)): 10 of 10

COc1cc(C)c(C2NC(=O)c3ccccc3N2)cc1C (stereo not drawn)
T/C (dose: 200.0 mg/kg/injection, vehicle: Klucel (hydroxypropylcellulose) (HPC)): 132 % of control | T/C [2]: 140 % of control | T/C (dose: 800.0 mg/kg/injection, vehicle: Klucel (hydroxypropylcellulose) (HPC)): 144 % of control

CC[C@H](CC[C@@H](C)C1CC[C@H]2[C@@H]3CC=C4C[C@@H](OP(=O)(N5CC5)N5CC5)CC[C@]4(C)[C@H]3CC[C@]12C)C(C)C (stereo partly drawn)
survivor count [1]: 10 of 10 (2×)

S=C1CCCCN1
survivor count (dose: 400.0 mg/kg/injection, vehicle: distilled water + alcohol): 0 of 10

O=C(O)CCC(NC(=O)c1ccccc1)C(=O)O (stereo not drawn)
survivor count [3]: 5 of 5

COc1ccc(C[C@H](N)C(=O)NC2C(CO)OC(n3cnc4c(N(C)C)ncnc43)C2O)cc1 (stereo partly drawn)
T/C (dose: 80.0 mg/kg/injection, vehicle: saline): 128 and 134 % of control | survivor count (dose: 160.0 mg/kg/injection, vehicle: saline): 8 of 10 and 7 of 7

Oc1ccc(OCc2ccccc2)cc1
survivor count [5]: 10 of 10 (2×) | survivor count [6]: 10 of 10

O=S(=O)(N=N/C=C1\C=CC=CN1O)c1cccs1
T/C [10]: 127 % of control | survivor count [3]: 8 of 10 | survivor count [1]: 1 of 10

CC(=O)Oc1ccc2c3c1O[C@H]1[C@@H](OC(C)=O)C=C[C@H]4[C@@H](C2)N(C)CC[C@@]341
survivor count (dose: 256.0 mg/kg/injection, vehicle: saline): 0 of 5

CCc1cccc(CC)c1-n1c(C)ccc1-c1ccccc1
survivor count [3]: 10 of 10 | survivor count [1]: 10 of 10

CCCCCCCCCCCCCCCCNc1cccc2ccccc12
survivor count (dose: 25.0 mg/kg/injection, vehicle: saline with Tween-80): 10 of 10 | survivor count [10]: 10 of 10
